The assay can be described thus: qHTS Assay for Lipid Storage Modulators in Drosophila S3 Cells.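 On cell number change: cells counted by Cell Tracker Red CMTPX staining in the red channel.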 As to conditions: BODIPY lipid droplet fluorescence, 18-24 h; for cell number change: measured here: cell count max response, cells fed with added oleic acid. The essentials: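 Drosophila S3 cells got compounds at several concentrations plus oleic acid (400 uM solution). Laser-scanning cytometry with 488 nm excitation read lipid droplets at 500-530 nm and cells at 575-640 nm. Percent activity was relative to 20 uM Triacsin C.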

Where [1] appears, read: measured here: cell number channel AC50, cells fed with added oleic acid.
Where [2] appears, read: measured here: lipid fluorescence (Fed channel) AC50, cells fed with added oleic acid.

The other results are listed elsewhere or left out. Further columns of the screen follow, without active or inactive calls. Compounds called inactive in the main read-out are mostly missing here. The note in brackets gives the kind of curve behind each potency; many fits are weak.

For the compound `O=C(Cn1nnc(-c2ccccc2NC(=O)c2ccco2)n1)Nc1ccccc1`, the cell number change is -30.8%. Besides, the AC50 under setting [1] was 32.6 µM [falling, single point]. Moreover, under setting [2], the AC50 was 2.91 µM [rising, partial curve]. Turning to `COc1ccc(NC(=O)C2C3C=CC4(O3)C2C(=O)N(CCN2CCCCC2C)C4C(=O)NC2CCCCC2)cc1` (stereo not drawn), the cell number change was found to be 19%. The concentration at half-maximal activity (AC50) under setting [1] was 0.164 µM [rising, full curve, poor fit].

As for `CN(Cc1ccccc1)C(=O)CCNS(=O)(=O)c1ccc2c(c1)oc(=O)n2C`, the AC50 under setting [1] is 2.59 µM [rising, single point]. For `CC1(C(=O)NC2CCCCCCC2)CCC(=O)N1Cc1cccs1` (stereo not drawn), the cell number change was -1.78%. `O=C(NNC(=O)c1ccccc1-c1ccccc1C(=O)O)c1ccccc1`: the cell number change amounted to 19.6%. The AC50 under setting [2] was 6.51 µM [falling, single point]. With `Cn1ccsc1=NC(=O)c1ccc(Cl)c([N+](=O)[O-])c1`, the cell number change worked out at 23.9%. Moreover, the AC50 under setting [2] is 0.0517 µM [falling, partial curve, poor fit]. For `CN(C)CCOC1c2ccccc2-c2ccccc21`, the cell number change amounted to 12.6%. The AC50 under setting [2] was 29.1 µM [rising, single point].

On to `C=CCNCC#CCOc1ccc(OC)cc1`, for which the cell number change turned out to be 2.8%. Further, under setting [2], the AC50 was 0.326 µM [falling, partial curve, poor fit].

Regarding `CCCCCc1nnc(NC(=O)NS(=O)(=O)c2ccc(C)cc2)s1`, the cell number change is -10.5%. Moreover, the AC50 under setting [2] is 0.231 µM [rising, full curve, poor fit].

For the compound `O=[N+]([O-])c1ccccc1/C=N\Nc1nccs1`, the cell number change was 9.07%. On to `CCOc1ccc2c(c1)C(C)=CC(C)(C)N2C(=O)Nc1ccccc1F`, for which the cell number change came to 0.706%. Under setting [2], the AC50 was 29.1 µM [rising, single point]. As to `CCCCN1CCc2c([nH]c3c(C)cccc23)C1=O`, the cell number change came out at 62.5%. In addition, the concentration at half-maximal activity (AC50) under setting [1] was 13 µM [rising, partial curve, poor fit]. On to `Cc1ccnc(NS(=O)(=O)c2ccc(NC(=O)c3oc4ccccc4c3C)cc2)n1`, for which the cell number change was 20.5%. Moreover, the AC50 under setting [1] is 1.03 µM [rising, full curve, poor fit].

On to `O=S(=O)(c1ccc2oc(=S)[nH]c2c1)N1CCOCC1`, for which the cell number change was -12.4%. Moreover, the AC50 under setting [2] is 1.3 µM [rising, full curve, poor fit]. As to `CCCn1c(CCC(=O)Nc2ccccc2Cc2ccccc2)nc2cc(S(=O)(=O)N3CCOCC3)ccc21`, the cell number change is 124%. For the same compound, the AC50 under setting [1] was 4.61 µM [rising, partial curve]. Besides, the concentration at half-maximal activity (AC50) under setting [2] was 3.26 µM [rising, full curve]. For `COc1cccc(CNC(=O)Nc2cccs2)c1`, the cell number change turned out to be 19.6%. Besides, the AC50 under setting [2] is 3.26 µM [rising, full curve].

In the case of `COC(=O)c1ccccc1NC(=O)/C=C/C(=O)O`, the cell number change is 3.62%. In addition, the AC50 under setting [2] is 1.03 µM [falling, full curve]. Regarding `CC(=O)Nc1cccc(NC(=O)COc2nncc3ccccc23)c1`, the cell number change was found to be 35.5%. Moreover, the AC50 under setting [1] is 14.6 µM [rising, single point]. Besides, under setting [2], the AC50 is 29.1 µM [rising, single point]. For `COc1ccc(S(=O)(=O)NCc2ccc3c(c2)OCO3)cc1C(=O)O`, the cell number change is -67.3%. Moreover, the AC50 under setting [1] is 25.9 µM [falling, partial curve, poor fit]. As to `CNCCCc1[nH]nc(N)c1C#N`, the cell number change was found to be 4.03%.

With `O=C1[C@H]2[C@@H](c3ccc(Cl)cc3)N3C(=O)N(c4cccc(Br)c4)C(=O)[C@@]3(Cc3ccc(Cl)cc3)[C@H]2C(=O)N1C1CCCCC1`, the cell number change is 128%. Also, the AC50 under setting [1] was 20.6 µM [rising, partial curve]. For the same compound, the AC50 under setting [2] was 1.84 µM [falling, partial curve, poor fit]. As to `COC(=O)c1cc2ccsc2n1Cc1nc(-c2cccc(Cl)c2)oc1C`, the cell number change was -3.28%. In addition, the AC50 under setting [2] was 0.731 µM [rising, single point].

With `Cc1ccc2nc(SCC(=O)Nc3cccc4ccccc34)nc(=O)n2c1`, the AC50 under setting [1] was 0.92 µM [rising, partial curve]. In the case of `CCOC(=O)Cn1cc(/C=N/NC(=O)c2ccc(C#N)cc2F)c2ccccc21`, the AC50 under setting [2] is 5.8 µM [rising, single point]. In the case of `C=CCNC(=O)CC(C)C(CCCCC)C(=O)O` (stereo not drawn), the cell number change was determined as 4.44%. The AC50 under setting [2] was 0.164 µM [falling, full curve, poor fit]. Take `Cc1ccc(O)c(Sc2cc(C)ccc2O)c1`: the cell number change is -90.5%. Also, the AC50 under setting [1] was 16.4 µM [falling, partial curve].

`CCN(Cc1cc(=O)[nH]c2ccccc12)C(=O)c1ccc(C)cc1`: the cell number change was found to be 2.13%. For the compound `C=CCOc1cccc(C2/C(=C(\O)c3ccc(F)cc3)C(=O)C(=O)N2CCN(C)C)c1` (stereo not drawn), the cell number change was -17.8%. Further, under setting [1], the AC50 was 1.3 µM [falling, full curve, poor fit]. For the same compound, the AC50 under setting [2] is 0.731 µM [falling, full curve].

For the compound `CCn1nc(C)c(CN2CCN(Cc3ccsc3)C(CCO)C2)c1C` (stereo not drawn), the cell number change was 11.7%. Moreover, the AC50 under setting [2] was 0.92 µM [rising, full curve]. For `CCN(CC(=O)Nc1ccc(Cl)c(S(=O)(=O)N(C)C)c1)Cc1nc2ccccc2c(=O)[nH]1`, the cell number change is 31.1%. For the same compound, the half-maximal activity concentration (AC50) under setting [1] is 8.2 µM [rising, partial curve, poor fit]. For the compound `O=C(c1c(Cl)nc2sccn12)N1CCN(c2cccc(Cl)c2)CC1`, the cell number change is -29.6%. Under setting [2], the AC50 is 0.092 µM [rising, full curve, poor fit].

Consider `O=C(c1ccco1)N1CCN(c2cccc(Cl)c2)CC1`, for which the cell number change was 126%. For the same compound, the AC50 under setting [1] was 18.4 µM [rising, partial curve]. Besides, the AC50 under setting [2] is 16.4 µM [rising, partial curve]. As to `C(=N\Nc1ncnc2nc[nH]c12)/c1cccs1`, the cell number change was determined as 21.6%. For the compound `COc1ccc(F)cc1Cn1nc(C(=O)O)c2ccccc2c1=O`, the cell number change came to 11.2%.

With `O=C(Nc1ccc(F)cc1)C(=O)C1C(=O)Nc2ccccc21` (stereo not drawn), the cell number change is -17%. Also, the AC50 under setting [2] is 0.366 µM [falling, partial curve, poor fit]. For `COc1cnn(-c2ccc(F)cc2)c(=O)c1Br`, the cell number change was -48.3%. In addition, the AC50 under setting [1] was 1.03 µM [falling, full curve, poor fit]. The AC50 under setting [2] was 0.731 µM [falling, full curve]. Turning to `Cc1cc(-c2nc3ccccc3c(=O)o2)ccc1[N+](=O)[O-]`, the cell number change was -1.92%. For the same compound, the AC50 under setting [2] is 1.03 µM [falling, full curve, poor fit]. With `Cc1ccc2c(CC(=O)NCC3(N4CCOCC4)CCCCC3)coc2c1C`, the cell number change is -12.9%. For the compound `Cc1ccc(CC(=O)N(Cc2ccccc2)c2ccccn2)cc1`, the cell number change is -11.8%. Also, the AC50 under setting [1] is 2.59 µM [rising, partial curve]. Consider `COc1ccc(NC(=O)Cn2nnc(C(=O)NCc3cccs3)c2N)cc1Cl`, for which the cell number change worked out at 50.7%. Moreover, under setting [1], the AC50 was 20.6 µM [rising, partial curve, poor fit]. Further, the AC50 under setting [2] is 29.1 µM [rising, partial curve, poor fit]. For `COC(=O)c1ccc(Cl)c(NC(=O)CSc2nnc(-c3ccncc3)o2)c1`, the cell number change was -11.3%. As to `CCNC(=O)c1ccc(NC(=O)CC2SC(N3CCCCC3)=NC2=O)cc1` (stereo not drawn), the cell number change worked out at 1.65%. Also, the AC50 under setting [2] was 1.3 µM [rising, partial curve]. As for `COC(=O)c1sc(-c2ccc(Cl)cc2)cc1NC(=O)CSCC(=O)O`, the cell number change is 8.56%. Moreover, the AC50 under setting [2] was 8.2 µM [rising, partial curve].

As for `Cc1nc(C(=O)N2CCCC(Nc3ccc(C)c(C)c3)C2)cs1` (stereo not drawn), the cell number change is 21.7%.

Consider `CCC(Sc1nc2ncccc2[nH]1)C(=O)NC1CCCC1` (stereo not drawn), for which the cell number change was 23.7%. Besides, the AC50 under setting [1] is 1.16 µM [rising, full curve, poor fit]. For the same compound, the AC50 under setting [2] was 2.06 µM [rising, single point]. Turning to `C(=N\c1c(-c2ccccc2)nc2n1CCS2)/c1ccccc1`, the cell number change worked out at 6.48%. Also, the AC50 under setting [2] is 29.1 µM [rising, single point]. Consider `Cc1sc2ncnc(Sc3nnnn3-c3ccc(Cl)cc3)c2c1C`, for which the cell number change is -0.983%.

Consider `Cc1cc(NC(=O)CSc2ncnc3sccc23)no1`, for which the cell number change is -25.7%. Further, under setting [1], the AC50 is 4.11 µM [falling, single point]. Further, the AC50 under setting [2] was 4.11 µM [falling, partial curve, poor fit].

Consider `Cc1ccc(N2C(=O)CSC2=S)cc1C`, for which the cell number change is -1.28%. Take `COC(=O)/C(C#N)=C(/Nc1ccc(F)c(Cl)c1)C(F)(F)F`: the cell number change came out at 0.32%. For the same compound, under setting [2], the AC50 is 6.51 µM [rising, single point]. Regarding `CC(c1ccccc1C(O)c1ccccc1)N(C)C` (stereo not drawn), the AC50 under setting [2] was 6.51 µM [rising, partial curve]. Take `COc1ccccc1NC(=O)C1CCN(S(=O)(=O)c2cccs2)CC1`: the cell number change was -17.9%. Besides, the AC50 under setting [1] was 6.51 µM [falling, single point]. Besides, the AC50 under setting [2] is 0.0103 µM [falling, full curve, poor fit]. For the compound `CC(Sc1ccc(Br)cc1)C(N)=O` (stereo not drawn), the AC50 is, setting by setting: under setting [1], 2.31 µM [rising, single point]; under setting [2], 0.00206 µM [falling, full curve, poor fit]. As to `Cn1nnnc1SCC(=O)Nc1ccccc1-c1ccccc1`, the cell number change was 9.53%. The AC50 under setting [2] is 6.51 µM [rising, single point]. For the compound `COc1cc(NC(=O)c2cc(OC)c(OC)c(OC)c2)cc(-n2cnnn2)c1`, the cell number change is 54.8%. Further, the AC50 under setting [1] was 18.4 µM [rising, single point]. In addition, the AC50 under setting [2] is 13 µM [falling, partial curve].

Take `COc1cc(NC(=O)c2cc(OC)c(OC)c(OC)c2)ccc1NC(=O)c1cccs1`: the cell number change was -21.4%. For the same compound, under setting [2], the AC50 is 25.9 µM [falling, single point]. For `Cc1[nH]nc2c1C(c1ccc(F)cc1)C(C#N)=C(N)O2` (stereo not drawn), the cell number change is -11.2%. Further, under setting [2], the AC50 is 0.206 µM [rising, partial curve]. In the case of `O=C(N/N=C/c1ccc2c(c1)OCO2)c1sc2cc(Cl)ccc2c1Cl`, the cell number change is 82.6%. Moreover, under setting [1], the AC50 was 4.11 µM [rising, full curve]. In addition, the AC50 under setting [2] was 6.51 µM [rising, single point].

With `COc1ccc(-n2c(-c3ccc(Br)cc3)n[nH]c2=S)cc1`, the cell number change amounted to 10.2%. Still for that read-out and setting: in the case of `Cc1ccccc1C(=O)N(CC(=O)Nc1sc(C)c(C)c1C(N)=O)C1CCCC1` it was -9.91%. For the compound `Cc1ccc2c(C)c(C(=O)N3CCCCC3CO)oc2c1C` (stereo not drawn), the cell number change was 6.42%. For the same compound, under setting [2], the AC50 is 3.66 µM [rising, single point].

By AC50 is commonly meant the concentration giving half of the maximal activity seen. Higher therefore signals weaker potency.

These data come from PubChem BioAssay AID2685 (National Center for Advancing Translational Sciences (NCATS), 2010).
